In PMC7518283:
No constants are given. Whether binding was seen depends on the method and setting. In cells and extracts the contact can be indirect. A yes stands for co-enrichment or nearness to the bait. Other partners may have been found. For some assays here: A no says only that the protein was not detected with the bait.

By UniProt entry, the sequences of proteins in these tests, tags left out.
UniProt P16788: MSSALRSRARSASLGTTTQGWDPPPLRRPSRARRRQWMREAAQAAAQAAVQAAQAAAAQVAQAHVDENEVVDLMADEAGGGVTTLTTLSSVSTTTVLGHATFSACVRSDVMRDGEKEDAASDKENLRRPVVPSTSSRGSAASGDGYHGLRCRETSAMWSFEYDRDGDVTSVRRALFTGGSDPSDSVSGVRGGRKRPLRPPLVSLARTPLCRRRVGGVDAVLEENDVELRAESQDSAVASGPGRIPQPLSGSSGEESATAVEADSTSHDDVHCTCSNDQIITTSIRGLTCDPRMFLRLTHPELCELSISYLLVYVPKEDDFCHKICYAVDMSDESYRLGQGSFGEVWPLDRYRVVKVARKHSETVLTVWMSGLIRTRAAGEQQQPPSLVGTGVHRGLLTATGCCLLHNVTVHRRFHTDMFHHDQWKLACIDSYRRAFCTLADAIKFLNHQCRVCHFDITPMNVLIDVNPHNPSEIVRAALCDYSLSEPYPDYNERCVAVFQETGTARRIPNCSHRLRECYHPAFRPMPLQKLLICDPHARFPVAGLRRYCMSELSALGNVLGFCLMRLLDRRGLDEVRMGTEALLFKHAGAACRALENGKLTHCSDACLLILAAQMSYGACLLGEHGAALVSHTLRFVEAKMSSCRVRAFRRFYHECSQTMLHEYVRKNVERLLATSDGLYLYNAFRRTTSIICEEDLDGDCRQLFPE
UniProt Q06587: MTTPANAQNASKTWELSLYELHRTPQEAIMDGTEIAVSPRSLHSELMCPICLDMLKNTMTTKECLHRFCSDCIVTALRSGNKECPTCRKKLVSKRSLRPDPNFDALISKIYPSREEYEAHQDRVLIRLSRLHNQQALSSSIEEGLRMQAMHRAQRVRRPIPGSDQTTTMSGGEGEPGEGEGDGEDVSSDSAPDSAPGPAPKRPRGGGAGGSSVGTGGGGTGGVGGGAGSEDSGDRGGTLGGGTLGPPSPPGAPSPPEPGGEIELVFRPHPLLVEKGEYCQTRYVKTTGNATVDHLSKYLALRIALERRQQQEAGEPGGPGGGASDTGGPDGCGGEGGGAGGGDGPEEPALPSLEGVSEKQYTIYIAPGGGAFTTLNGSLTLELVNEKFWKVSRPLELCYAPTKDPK
UniProt P12004: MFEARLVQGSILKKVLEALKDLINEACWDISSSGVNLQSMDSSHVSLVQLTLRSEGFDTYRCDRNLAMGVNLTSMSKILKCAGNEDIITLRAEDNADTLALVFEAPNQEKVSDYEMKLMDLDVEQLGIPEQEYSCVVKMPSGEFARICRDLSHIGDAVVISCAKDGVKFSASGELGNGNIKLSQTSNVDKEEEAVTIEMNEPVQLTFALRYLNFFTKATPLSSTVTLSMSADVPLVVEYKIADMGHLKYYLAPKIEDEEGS
UniProt Q13263: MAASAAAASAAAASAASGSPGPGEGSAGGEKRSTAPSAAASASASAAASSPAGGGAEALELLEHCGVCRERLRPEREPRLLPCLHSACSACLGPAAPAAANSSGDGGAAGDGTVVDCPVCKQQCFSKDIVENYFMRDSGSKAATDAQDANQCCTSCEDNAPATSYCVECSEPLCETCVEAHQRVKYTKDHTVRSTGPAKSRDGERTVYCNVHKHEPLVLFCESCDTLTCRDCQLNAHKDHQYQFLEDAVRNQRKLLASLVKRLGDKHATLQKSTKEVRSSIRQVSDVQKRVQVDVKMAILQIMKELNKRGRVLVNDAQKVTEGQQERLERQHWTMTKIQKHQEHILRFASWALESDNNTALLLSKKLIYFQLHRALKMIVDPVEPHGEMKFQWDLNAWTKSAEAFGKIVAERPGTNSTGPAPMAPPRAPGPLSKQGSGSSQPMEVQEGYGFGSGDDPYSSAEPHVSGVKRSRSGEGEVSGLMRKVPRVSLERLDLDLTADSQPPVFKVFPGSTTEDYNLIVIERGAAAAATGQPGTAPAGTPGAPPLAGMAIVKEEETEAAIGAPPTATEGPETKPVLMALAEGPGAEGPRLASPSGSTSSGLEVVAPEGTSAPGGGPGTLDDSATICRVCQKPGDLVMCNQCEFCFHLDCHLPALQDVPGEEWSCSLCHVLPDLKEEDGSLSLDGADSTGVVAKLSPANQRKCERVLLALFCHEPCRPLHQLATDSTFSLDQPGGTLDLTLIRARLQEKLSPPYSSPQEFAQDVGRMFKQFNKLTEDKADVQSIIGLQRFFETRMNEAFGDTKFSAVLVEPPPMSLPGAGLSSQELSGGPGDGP
UniProt A6NHR9: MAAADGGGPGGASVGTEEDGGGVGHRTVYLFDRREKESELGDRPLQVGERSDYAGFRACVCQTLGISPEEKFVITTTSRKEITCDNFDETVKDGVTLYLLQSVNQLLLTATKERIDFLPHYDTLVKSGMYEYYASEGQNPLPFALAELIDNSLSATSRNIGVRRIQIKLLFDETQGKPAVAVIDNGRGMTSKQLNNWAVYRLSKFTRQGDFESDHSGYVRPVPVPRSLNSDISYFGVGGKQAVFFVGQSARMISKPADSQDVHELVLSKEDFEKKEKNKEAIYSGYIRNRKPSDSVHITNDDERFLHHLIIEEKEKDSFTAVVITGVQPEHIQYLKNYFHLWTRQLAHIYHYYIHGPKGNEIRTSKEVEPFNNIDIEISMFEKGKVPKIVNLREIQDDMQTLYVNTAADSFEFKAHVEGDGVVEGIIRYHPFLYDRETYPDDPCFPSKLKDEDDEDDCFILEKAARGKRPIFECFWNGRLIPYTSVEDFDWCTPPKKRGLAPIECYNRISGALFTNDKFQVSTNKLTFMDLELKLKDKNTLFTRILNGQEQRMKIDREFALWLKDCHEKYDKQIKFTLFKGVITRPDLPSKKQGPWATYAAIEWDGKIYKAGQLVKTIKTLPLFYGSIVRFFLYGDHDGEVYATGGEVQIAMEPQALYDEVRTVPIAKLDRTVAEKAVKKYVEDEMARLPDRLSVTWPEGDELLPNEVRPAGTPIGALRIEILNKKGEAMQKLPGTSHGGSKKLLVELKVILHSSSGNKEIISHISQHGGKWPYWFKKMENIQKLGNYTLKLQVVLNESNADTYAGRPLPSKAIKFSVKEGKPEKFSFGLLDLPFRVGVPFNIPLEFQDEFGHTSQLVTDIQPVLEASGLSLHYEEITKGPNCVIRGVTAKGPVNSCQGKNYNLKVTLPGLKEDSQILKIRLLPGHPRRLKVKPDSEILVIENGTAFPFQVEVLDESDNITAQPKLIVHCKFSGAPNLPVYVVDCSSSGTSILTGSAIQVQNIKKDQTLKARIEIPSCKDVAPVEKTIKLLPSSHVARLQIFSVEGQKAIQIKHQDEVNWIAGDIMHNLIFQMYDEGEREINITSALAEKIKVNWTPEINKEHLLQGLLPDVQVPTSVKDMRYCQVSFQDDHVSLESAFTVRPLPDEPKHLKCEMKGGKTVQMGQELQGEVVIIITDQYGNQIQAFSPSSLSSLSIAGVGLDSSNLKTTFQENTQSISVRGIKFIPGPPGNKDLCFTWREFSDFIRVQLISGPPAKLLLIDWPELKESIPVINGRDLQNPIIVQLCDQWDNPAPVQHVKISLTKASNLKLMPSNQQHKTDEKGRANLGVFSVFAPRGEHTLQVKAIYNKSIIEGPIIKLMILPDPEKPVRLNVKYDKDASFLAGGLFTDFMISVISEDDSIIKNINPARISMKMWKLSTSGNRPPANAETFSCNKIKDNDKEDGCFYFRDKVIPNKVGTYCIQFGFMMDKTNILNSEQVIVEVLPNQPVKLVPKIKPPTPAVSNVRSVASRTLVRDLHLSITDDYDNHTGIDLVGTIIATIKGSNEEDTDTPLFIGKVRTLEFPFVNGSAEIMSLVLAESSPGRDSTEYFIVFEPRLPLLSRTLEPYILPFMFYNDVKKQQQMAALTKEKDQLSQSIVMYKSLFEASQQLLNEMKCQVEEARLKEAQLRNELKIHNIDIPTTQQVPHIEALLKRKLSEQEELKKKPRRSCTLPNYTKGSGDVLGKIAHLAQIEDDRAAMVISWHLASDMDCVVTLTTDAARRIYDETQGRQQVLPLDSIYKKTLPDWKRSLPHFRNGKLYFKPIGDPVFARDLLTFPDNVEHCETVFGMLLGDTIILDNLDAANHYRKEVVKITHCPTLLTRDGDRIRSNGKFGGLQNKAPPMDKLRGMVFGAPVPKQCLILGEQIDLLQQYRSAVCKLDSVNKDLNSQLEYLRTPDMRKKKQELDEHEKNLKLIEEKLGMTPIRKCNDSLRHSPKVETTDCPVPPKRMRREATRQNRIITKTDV
UniProt P54198: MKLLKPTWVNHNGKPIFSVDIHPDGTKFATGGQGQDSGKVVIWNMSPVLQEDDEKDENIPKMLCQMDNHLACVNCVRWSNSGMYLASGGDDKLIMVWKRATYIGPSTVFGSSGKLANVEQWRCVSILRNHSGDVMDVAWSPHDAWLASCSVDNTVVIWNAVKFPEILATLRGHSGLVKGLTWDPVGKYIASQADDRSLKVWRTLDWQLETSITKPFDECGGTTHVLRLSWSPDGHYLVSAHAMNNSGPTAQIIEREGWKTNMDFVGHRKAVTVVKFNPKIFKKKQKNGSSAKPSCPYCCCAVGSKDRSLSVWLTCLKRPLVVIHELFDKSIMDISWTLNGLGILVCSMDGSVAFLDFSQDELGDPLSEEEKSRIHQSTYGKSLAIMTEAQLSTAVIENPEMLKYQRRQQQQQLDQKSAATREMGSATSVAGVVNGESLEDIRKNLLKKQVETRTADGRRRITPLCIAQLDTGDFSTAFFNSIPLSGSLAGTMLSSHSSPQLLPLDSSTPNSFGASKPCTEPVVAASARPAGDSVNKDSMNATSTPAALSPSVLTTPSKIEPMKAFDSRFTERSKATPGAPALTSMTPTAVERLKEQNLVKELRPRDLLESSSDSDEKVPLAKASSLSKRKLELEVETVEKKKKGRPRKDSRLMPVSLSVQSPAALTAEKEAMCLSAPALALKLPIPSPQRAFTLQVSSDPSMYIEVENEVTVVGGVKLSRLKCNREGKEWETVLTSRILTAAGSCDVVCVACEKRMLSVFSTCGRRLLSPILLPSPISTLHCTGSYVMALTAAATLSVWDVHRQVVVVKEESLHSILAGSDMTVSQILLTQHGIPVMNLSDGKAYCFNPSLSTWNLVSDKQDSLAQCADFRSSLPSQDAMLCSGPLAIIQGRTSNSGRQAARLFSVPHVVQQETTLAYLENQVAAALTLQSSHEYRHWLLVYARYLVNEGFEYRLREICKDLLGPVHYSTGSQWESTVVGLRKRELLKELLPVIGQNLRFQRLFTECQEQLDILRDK
UniProt Q3KP31: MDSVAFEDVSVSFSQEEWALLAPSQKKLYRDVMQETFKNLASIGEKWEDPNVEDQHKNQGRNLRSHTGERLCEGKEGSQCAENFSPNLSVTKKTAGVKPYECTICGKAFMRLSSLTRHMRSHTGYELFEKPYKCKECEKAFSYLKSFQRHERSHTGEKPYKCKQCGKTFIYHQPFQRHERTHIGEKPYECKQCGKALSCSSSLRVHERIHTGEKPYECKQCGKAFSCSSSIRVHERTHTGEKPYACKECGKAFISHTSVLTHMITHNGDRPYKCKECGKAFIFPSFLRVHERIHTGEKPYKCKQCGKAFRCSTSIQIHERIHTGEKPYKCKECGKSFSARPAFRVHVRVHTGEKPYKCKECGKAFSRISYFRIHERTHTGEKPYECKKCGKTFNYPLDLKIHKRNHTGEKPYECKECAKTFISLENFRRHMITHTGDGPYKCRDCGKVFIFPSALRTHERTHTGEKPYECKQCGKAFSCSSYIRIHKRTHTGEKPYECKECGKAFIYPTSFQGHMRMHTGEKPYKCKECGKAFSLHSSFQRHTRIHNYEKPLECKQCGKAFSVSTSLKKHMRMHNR
UniProt P52737: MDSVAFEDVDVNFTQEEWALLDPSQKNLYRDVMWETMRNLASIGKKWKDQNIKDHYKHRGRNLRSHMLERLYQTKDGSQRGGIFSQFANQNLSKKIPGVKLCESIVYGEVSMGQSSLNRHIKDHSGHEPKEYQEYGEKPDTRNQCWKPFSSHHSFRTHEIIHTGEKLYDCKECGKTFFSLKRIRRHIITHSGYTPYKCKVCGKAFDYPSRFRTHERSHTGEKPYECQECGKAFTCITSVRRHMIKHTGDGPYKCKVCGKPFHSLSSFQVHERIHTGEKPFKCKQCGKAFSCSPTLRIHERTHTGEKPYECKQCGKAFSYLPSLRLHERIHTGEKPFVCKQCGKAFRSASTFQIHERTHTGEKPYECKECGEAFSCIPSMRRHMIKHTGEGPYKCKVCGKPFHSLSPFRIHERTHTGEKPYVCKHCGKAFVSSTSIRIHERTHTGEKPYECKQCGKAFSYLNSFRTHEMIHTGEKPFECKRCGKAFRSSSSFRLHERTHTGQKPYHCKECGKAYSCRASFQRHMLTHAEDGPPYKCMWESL

Experiments:
[1] = target: T1, HHV1-UL13 (human herpesvirus 1 (HHV1)) (UniProt P04290); test: affinity purification with mass spectrometry
T1 sequence: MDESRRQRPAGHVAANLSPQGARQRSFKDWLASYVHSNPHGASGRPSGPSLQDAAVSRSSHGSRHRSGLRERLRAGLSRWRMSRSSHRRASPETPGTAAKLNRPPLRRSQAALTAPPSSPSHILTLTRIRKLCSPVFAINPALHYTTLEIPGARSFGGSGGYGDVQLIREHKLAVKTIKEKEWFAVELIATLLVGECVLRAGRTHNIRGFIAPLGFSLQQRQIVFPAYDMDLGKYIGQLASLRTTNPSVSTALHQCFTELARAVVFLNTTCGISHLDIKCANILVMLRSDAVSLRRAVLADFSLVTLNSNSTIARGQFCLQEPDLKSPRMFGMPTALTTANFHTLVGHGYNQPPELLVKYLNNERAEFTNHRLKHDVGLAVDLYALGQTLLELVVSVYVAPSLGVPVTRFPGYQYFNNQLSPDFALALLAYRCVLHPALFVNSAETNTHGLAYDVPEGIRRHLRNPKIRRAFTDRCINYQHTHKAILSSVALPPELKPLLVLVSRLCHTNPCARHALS

[2] = target: HHV5-UL97 (human cytomegalovirus (human herpesvirus 5, HHV5)) (UniProt P16788); test: affinity purification with mass spectrometry
[3] = target: HHV5-UL97 (human cytomegalovirus (human herpesvirus 5, HHV5)) (UniProt P16788); test: affinity purification with mass spectrometry; additional SILAC AP–MS experiment directly comparing proteins enriched to BGLF4 and pUL97
[4] = target: HHV8-ORF36 (human herpesvirus 8 (HHV8)); test: affinity purification with mass spectrometry
[5] = target: HHV6-U69 (human herpesvirus 6 (HHV6)); test: affinity purification with mass spectrometry
[6] = target: HHV7-U69 (human herpesvirus 7 (HHV7)); test: affinity purification with mass spectrometry
[7] = target: HHV3-ORF47 (human herpesvirus 3 (HHV3)); test: affinity purification with mass spectrometry

HERC2 (from UniProt O95714 1-4834)
binding [1]: no binding
binding [2]: no binding

CABIN1 (from UniProt Q9Y6J0 1-2220)
binding [1]: no binding
binding [2]: no binding

RING1 (from UniProt Q06587 1-406)
binding [1]: no binding
binding [2]: binds
binding [3]: binds

PCNA (from UniProt P12004 1-261)
binding [1]: no binding
binding [2]: no binding

TRIM28 (from UniProt Q13263 1-835)
binding [1]: no binding
binding [2]: binds
binding [3]: binds

HSP90 (human (endogenous in HEK-293T))
binding [1]: binds

SMCHD1 (from UniProt A6NHR9 1-2005)
binding [1]: no binding
binding [2]: no binding

HIRA (from UniProt P54198 1-1017)
binding [1]: no binding
binding [2]: no binding

ZNF791 (from UniProt Q3KP31 1-576)
binding [1]: no binding
binding [2]: binds
binding [3]: binds

E4F1 (from UniProt Q66K89 1-784)
binding [1]: no binding
binding [2]: no binding

ZNF136 (from UniProt P52737 1-540)
binding [1]: no binding
binding [2]: binds
binding [3]: binds

Cyclin A (from UniProt P20248 1-432)
binding [2]: binds

B1: CDC37 (protein, UniProt Q16543 1-378)
chain: MVDYSVWDHIEVSDDEDETHPNIDTASLFRWRHQARVERMEQFQKEKEELDRGCRECKRKVAECQRKLKELEVAEGGKAELERLQAEAQQLRKEERSWEQKLEEMRKKEKSMPWNVDTLSKDGFSKSMVNTKPEKTEEDSEEVREQKHKTFVEKYEKQIKHFGMLRRWDDSQKYLSDNVHLVCEETANYLVIWCIDLEVEEKCALMEQVAHQTIVMQFILELAKSLKVDPRACFRQFFTKIKTADRQYMEGFNDELEAFKERVRGRAKLRIEKAMKEYEEEERKKRLGPGGLDPVEVYESLPEELQKCFDVKDVQMLQDAISKMDPTDAKYHMQRCIDSGLWVPNSKASEAKEGEEAGPGDPLLEAVPKTGDEKDVSV
binding [4]: binds
binding [5]: binds
binding [6]: binds
binding [7]: binds
binding [1]: binds
binding [2]: binds

B2: PHC2 (protein, UniProt Q8IXK0 1-858)
chain: MENELPVPHTSSSACATSSTSGASSSSGCNNSSSGGSGRPTGPQISVYSGIPDRQTVQVIQQALHRQPSTAAQYLQQMYAAQQQHLMLQTAALQQQHLSSAQLQSLAAVQQASLVSNRQGSTSGSNVSAQAPAQSSSINLAASPAAAQLLNRAQSVNSAAASGIAQQAVLLGNTSSPALTASQAQMYLRAQMLIFTPTATVATVQPELGTGSPARPPTPAQVQNLTLRTQQTPAAAASGPTPTQPVLPSLALKPTPGGSQPLPTPAQSRNTAQASPAGAKPGIADSVMEPHKKGDGNSSVPGSMEGRAGLSRTVPAVAAHPLIAPAYAQLQPHQLLPQPSSKHLQPQFVIQQQPQPQQQQPPPQQSRPVLQAEPHPQLASVSPSVALQPSSEAHAMPLGPVTPALPLQCPTANLHKPGGSQQCHPPTPDTGPQNGHPEGVPHTPQRRFQHTSAVILQLQPASPPQQCVPDDWKEVAPGEKSVPETRSGPSPHQQAIVTAMPGGLPVPTSPNIQPSPAHETGQGIVHALTDLSSPGMTSGNGNSASSIAGTAPQNGENKPPQAIVKPQILTHVIEGFVIQEGAEPFPVGRSSLLVGNLKKKYAQGFLPEKLPQQDHTTTTDSEMEEPYLQESKEEGAPLKLKCELCGRVDFAYKFKRSKRFCSMACAKRYNVGCTKRVGLFHSDRSKLQKAGAATHNRRRASKASLPPLTKDTKKQPTGTVPLSVTAALQLTHSQEDSSRCSDNSSYEEPLSPISASSSTSRRRQGQRDLELPDMHMRDLVGMGHHFLPSEPTKWNVEDVYEFIRSLPGCQEIAEEFRAQEIDGQALLLLKEDHLMSAMNIKLGPALKIYARISMLKDS
binding [4]: no binding
binding [5]: no binding
binding [6]: no binding
binding [7]: no binding
binding [1]: no binding
binding [2]: binds
binding [3]: binds

B3: CBX4 (protein, UniProt O00257 1-560)
chain: MELPAVGEHVFAVESIEKKRIRKGRVEYLVKWRGWSPKYNTWEPEENILDPRLLIAFQNRERQEQLMGYRKRGPKPKPLVVQVPTFARRSNVLTGLQDSSTDNRAKLDLGAQGKGQGHQYELNSKKHHQYQPHSKERAGKPPPPGKSGKYYYQLNSKKHHPYQPDPKMYDLQYQGGHKEAPSPTCPDLGAKSHPPDKWAQGAGAKGYLGAVKPLAGAAGAPGKGSEKGPPNGMMPAPKEAVTGNGIGGKMKIVKNKNKNGRIVIVMSKYMENGMQAVKIKSGEVAEGEARSPSHKKRAADERHPPADRTFKKAAGAEEKKVEAPPKRREEEVSGVSDPQPQDAGSRKLSPTKEAFGEQPLQLTTKPDLLAWDPARNTHPPSHHPHPHPHHHHHHHHHHHHAVGLNLSHVRKRCLSETHGEREPCKKRLTARSISTPTCLGGSPAAERPADLPPAAALPQPEVILLDSDLDEPIDLRCVKTRSEAGEPPSSLQVKPETPASAAVAVAAAAAPTTTAEKPPAEAQDEPAESLSEFKPFFGNIIITDVTANCLTVTFKEYVTV
binding [4]: no binding
binding [5]: no binding
binding [6]: no binding
binding [7]: no binding
binding [1]: no binding
binding [2]: binds
binding [3]: binds

B4: E4F1 (protein, UniProt Q66K89 1-784)
chain: MEGAMAVRVTAAHTAEAQAEAGREAGEGAVAAVAAALAPSGFLGLPAPFSEEDEDDVHRCGRCQAEFTALEDFVQHKIQKACQRAPPEALPATPATTALLGQEVVPAAPGPEEPITVAHIVVEAASLAADISHASDLVGGGHIKEVIVAAEAELGDGEMAEAPGSPRQQGLGLAGEGEQAQVKLLVNKDGRYVCALCHKTFKTGSILKAHMVTHSSRKDHECKLCGASFRTKGSLIRHHRRHTDERPYKCSKCGKSFRESGALTRHLKSLTPCTEKIRFSVSKDVVVSKEDARAGSGAGAAGLGTATSSVTGEPIETSPVIHLVTDAKGTVIHEVHVQMQELSLGMKALAPEPPVSQELPCSSEGSRENLLHQAMQNSGIVLERAAGEEGALEPAPAAGSSPQPLAVAAPQLPVLEVQPLETQVASEASAVPRTHPCPQCSETFPTAATLEAHKRGHTGPRPFACAQCGKAFPKAYLLKKHQEVHVRERRFRCGDCGKLYKTIAHVRGHRRVHSDERPYPCPKCGKRYKTKNAQQVHFRTHLEEKPHVCQFCSRGFREKGSLVRHVRHHTGEKPFKCYKCGRGFAEHGTLNRHLRTKGGCLLEVEELLVSEDSPAAATTVLTEDPHTVLVEFSSVVADTQEYIIEATADDAETSEATEIIEGTQTEVDSHIMKVVQQIVHQASAGHQIIVQNVTMDEETALGPEAAAADTITIATPESLTEQVAMTLASAISEGTVLAARAGTSGTEQATVTMVSSEDIEILEHAGELVIASPEGQLEVQTVIV
binding [4]: no binding
binding [5]: no binding
binding [6]: no binding
binding [7]: no binding

B5: SSBP1 (protein, UniProt Q04837 17-148)
chain: ESETTTSLVLERSLNRVHLLGRVGQDPVLRQVEGKNPVTIFSLATNEMWRSGDSEVYQLGDVSQKTTWHRISVFRPGLRDVAYQYVKKGSRIYLEGKIDYGEYMDKNNVRRQATTIIADNIIFLSDQTKEKE
binding [4]: no binding
binding [5]: no binding
binding [6]: no binding
binding [7]: no binding
binding [1]: no binding
binding [2]: no binding

B6: BEND3 (protein, UniProt Q5T5X7 1-828)
chain: MNSTEFTEDVEEVLKSITVKVETEAEDAALDCSVNSRTSEKHSVDSVLTALQDSSKRKQLVSDGLLDSVPGVKRRRLIPEALLAGMRNRENSSPCQGNGEQAGRGRSLGNVWPGEEEPCNDATTPSYKKPLYGISHKIMEKKNPPSGDLLNVYELFEKANASNSPSSLRLLNEPQKRDCGSTGAGTDNDPNIYFLIQKMFYMLNTLTSNMSQLHSKVDLLSLEVSRIKKQVSPTEMVAKFQPPPEYQLTAAELKQIVDQSLSGGDLACRLLVQLFPELFSDVDFSRGCSACGFAAKRKLESLHLQLIRNYVEVYYPSVKDTAVWQAECLPQLNDFFSRFWAQREMEDSQPSGQVASFFEAEQVDPGHFLDNKDQEEALSLDRSSTIASDHVVDTQDLTEFLDEASSPGEFAVFLLHRLFPELFDHRKLGEQYSCYGDGGKQELDPQRLQIIRNYTEIYFPDMQEEEAWLQQCAQRINDELEGLGLDAGSEGDPPRDDCYDSSSLPDDISVVKVEDSFEGERPGRRSKKIWLVPIDFDKLEIPQPDFEVPGADCLLSKEQLRSIYESSLSIGNFASRLLVHLFPELFTHENLRKQYNCSGSLGKKQLDPSRIKLIRHYVQLLYPRAKNDRVWTLEFVGKLDERCRRRDTEQRRSYQQQRKVHVPGPECRDLTSYAINPERFREEFEGPPLPPERSSKDFCKIPLDELVVPSPDFPVPSPYLLSDKEVREIVQQSLSVGNFAARLLVRLFPELFTAENLRLQYNHSGACNKKQLDPTRLRLIRHYVEAVYPVEKMEEVWHYECIPSIDERCRRPNRKKCDILKKAKKVEK
binding [4]: no binding
binding [5]: no binding
binding [6]: no binding
binding [7]: no binding
binding [1]: no binding
binding [2]: no binding
